Laboratory results as given in patent US20260265358A1.
These are yes or no findings as the source states them, for the method shown. Some binding calls cover weakened binding; strength is not graded here.

By UniProt entry, the sequences of proteins in these tests, tags left out. Residues count along the entry.
UniProt P09529, residues 293-407: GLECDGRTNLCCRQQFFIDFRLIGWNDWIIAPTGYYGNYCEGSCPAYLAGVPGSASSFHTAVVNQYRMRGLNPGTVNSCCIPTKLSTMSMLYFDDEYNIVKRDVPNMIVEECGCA

What was measured:
Activin B [1] = biological target: Activin B (UniProt P09529); experiment: Octet BLI, IgG, avid; binder with a poor fit to a 1:1 model
Activin B [2] = biological target: Activin B (UniProt P09529); experiment: Octet BLI, IgG format

binding (Activin B [1])	binding (Activin B [2])	Binder
binds	–	anti-Activin A antibody Clone P (IgG) (antibody, V domains shown) VH: QVQLVQSGAEVKKPGSSVKVSCKASGGTFDDYAISWVRQAPGQGLEWMGGIIPRFGIANYAQKFQGRVTITADESTSTAYMELSSLRSEDTAVYYCARPPSSGSDWGQGTLVTVSS VL: DIQMTQSPSSVSASVGDRVTITCRASQGIDSWLAWYQQKPGKAPKLLIYAASSLQSGVPSRFSGSGSGTDFTLTISSLQPEDFATYYCQQVHSFPITFGGGTKVEIKR
–	binds	anti-Activin A antibody Clone F (IgG) (antibody, V domains shown) VH: QVQLVQSGAEVKKPGASVKVSCKASGYTFTGYHIHWVRQVPGQGLEWMGVISAYSGDTNYAQKLQGRVTMTTDTSTSTAYMELRSLRSDDTAVYYCARARDIAALGLGAFDYWGQGTLVTVSS VL: EIVLTQSPATLSVSPGERATLSCRASQSVSSNLAWYQQKPGQAPRLLIYGASDRATGIPARFSGSGSGTEFTLTISSLQSEDFAVYYCIQYSNYPRTFGGGTKVEIKR
–	binds	anti-Activin A antibody Clone L (IgG) (antibody, V domains shown) VH: QVQLQESGPGLVKPSETLSLTCAVSGYSISSGYYWGWIRQPPGKGLEWIGSIYHSGSTYYNPSLKSRVTISVDTSKNQFSLKLSSVTAADTAVYYCAREAGSGYWYLSVYGMDVWGQGTTVTVSS VL: EIVLTQSPATLSVSPGERATLSCRASQSVSSNLAWYQQKPGQAPRLLIYGASTRATGIPARFSGSGSGTEFTLTISSLQSEDFAVYYCQQSDDWPWTFGGGTKVEIKR
